Test results: patent US20050256040A1, “Artificially designed pore-forming proteins with anti-tumor effects” (Buck Institute, priority 2004, published 2005)
Some entries share one result that the patent states for a list of compounds.

Test system: KS1767 cells
Assay type: cell-based
Conditions: all cell types tested
Description: All cell lines were obtained commercially. The Kaposi's sarcoma-derived cell line KS1767 and the breast carcinoma cell line MDA-MB-435 have been described previously (see, for example, Herndier, et al. (1994) Aids 8, 575-581; Reisbach, et al. (1982) Anticancer Res. 2, 257-260; and Ellerby, et al. (1999) Nat. Med. 5, 1032-1038) and were cultured in 10% fetal bovine serum/Dulbecco's modified Eagle's medium, containing antibiotics.
To evaluate the effects of SGP on cell membranes multiple human cell lines of different origins were treated (see Table I, which presents a comparison of LC50 data for SGP, SGP-L, and SGP-E on a variety of cultured human cell types).
Cell viability was determined by morphology (see Ellerby, et al. (1999) Nat. Med. 5, 1032-1038; and Ellerby, et al. (1997) J. Neurosci. 17, 6165-6178). For viability assays, KS1767 cells were incubated with the concentrations of SGP, SGP-L, SGP-E, or control peptides indicated in the figures and in Table I. Briefly, at the given time points, cell culture medium was aspirated from adherent cells. Cells were then gently washed once with PBS at 37° C. A 20-fold dilution of the dye mixture (100 μg/ml acridine orange and 100 μg/ml ethidium bromide) in PBS was then gently pipetted on the cells and viewed on an inverted microscope (Nikon TE 300). […] Percent viability was calculated relative to untreated cells.

| Molecule | increase of LC50 relative to SGP |
| --- | --- |
| SGP-L: SGP variant SEQ ID NO:4; central all alanine helix replaced by an all leucine helix; negative control (peptide) LLLLLLWLLLLGPNGLKLYKKLLKKLLKLLGNPGLKLYKKLLKKLLLKLGNPGLLKLYKKLLKKLLKLL | at least 10 fold |
| SGP-E: SGP variant SEQ ID NO:3; lysines replaced by glutamic acids; negative control (peptide) AAAAAAWAAAAGNPGLELLKKLYKKLLELLGNPGLELLKKYLKKLLELLGNPGLLELLKKYLKKLLELL | at least 10 fold |
